Measured values as given in the supplement of paper PMC10849652.
Some of the results follow.

Protein sequences, listed by entry. Tags and fused reporters are not part of them. Lines headed by an entry give the natural chain unless they say otherwise; changes in a name come on top.
UniProt Q6TDP4, whole entry, looked up: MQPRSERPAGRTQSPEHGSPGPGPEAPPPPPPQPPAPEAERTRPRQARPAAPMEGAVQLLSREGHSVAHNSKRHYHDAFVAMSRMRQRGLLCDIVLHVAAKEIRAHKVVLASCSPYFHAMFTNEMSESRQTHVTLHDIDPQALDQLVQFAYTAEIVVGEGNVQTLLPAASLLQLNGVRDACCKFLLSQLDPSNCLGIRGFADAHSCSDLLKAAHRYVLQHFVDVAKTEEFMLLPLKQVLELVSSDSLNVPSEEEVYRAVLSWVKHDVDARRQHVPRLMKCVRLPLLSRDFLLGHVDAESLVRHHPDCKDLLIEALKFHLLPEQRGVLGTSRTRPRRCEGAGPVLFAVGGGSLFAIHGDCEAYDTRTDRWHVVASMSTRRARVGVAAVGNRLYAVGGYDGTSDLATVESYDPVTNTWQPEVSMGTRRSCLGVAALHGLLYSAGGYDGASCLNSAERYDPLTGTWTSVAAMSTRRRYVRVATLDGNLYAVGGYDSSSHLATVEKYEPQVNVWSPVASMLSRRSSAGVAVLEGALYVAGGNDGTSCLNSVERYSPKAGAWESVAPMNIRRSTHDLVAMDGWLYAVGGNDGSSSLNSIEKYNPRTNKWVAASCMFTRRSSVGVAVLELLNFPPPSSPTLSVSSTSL
UniProt O60303: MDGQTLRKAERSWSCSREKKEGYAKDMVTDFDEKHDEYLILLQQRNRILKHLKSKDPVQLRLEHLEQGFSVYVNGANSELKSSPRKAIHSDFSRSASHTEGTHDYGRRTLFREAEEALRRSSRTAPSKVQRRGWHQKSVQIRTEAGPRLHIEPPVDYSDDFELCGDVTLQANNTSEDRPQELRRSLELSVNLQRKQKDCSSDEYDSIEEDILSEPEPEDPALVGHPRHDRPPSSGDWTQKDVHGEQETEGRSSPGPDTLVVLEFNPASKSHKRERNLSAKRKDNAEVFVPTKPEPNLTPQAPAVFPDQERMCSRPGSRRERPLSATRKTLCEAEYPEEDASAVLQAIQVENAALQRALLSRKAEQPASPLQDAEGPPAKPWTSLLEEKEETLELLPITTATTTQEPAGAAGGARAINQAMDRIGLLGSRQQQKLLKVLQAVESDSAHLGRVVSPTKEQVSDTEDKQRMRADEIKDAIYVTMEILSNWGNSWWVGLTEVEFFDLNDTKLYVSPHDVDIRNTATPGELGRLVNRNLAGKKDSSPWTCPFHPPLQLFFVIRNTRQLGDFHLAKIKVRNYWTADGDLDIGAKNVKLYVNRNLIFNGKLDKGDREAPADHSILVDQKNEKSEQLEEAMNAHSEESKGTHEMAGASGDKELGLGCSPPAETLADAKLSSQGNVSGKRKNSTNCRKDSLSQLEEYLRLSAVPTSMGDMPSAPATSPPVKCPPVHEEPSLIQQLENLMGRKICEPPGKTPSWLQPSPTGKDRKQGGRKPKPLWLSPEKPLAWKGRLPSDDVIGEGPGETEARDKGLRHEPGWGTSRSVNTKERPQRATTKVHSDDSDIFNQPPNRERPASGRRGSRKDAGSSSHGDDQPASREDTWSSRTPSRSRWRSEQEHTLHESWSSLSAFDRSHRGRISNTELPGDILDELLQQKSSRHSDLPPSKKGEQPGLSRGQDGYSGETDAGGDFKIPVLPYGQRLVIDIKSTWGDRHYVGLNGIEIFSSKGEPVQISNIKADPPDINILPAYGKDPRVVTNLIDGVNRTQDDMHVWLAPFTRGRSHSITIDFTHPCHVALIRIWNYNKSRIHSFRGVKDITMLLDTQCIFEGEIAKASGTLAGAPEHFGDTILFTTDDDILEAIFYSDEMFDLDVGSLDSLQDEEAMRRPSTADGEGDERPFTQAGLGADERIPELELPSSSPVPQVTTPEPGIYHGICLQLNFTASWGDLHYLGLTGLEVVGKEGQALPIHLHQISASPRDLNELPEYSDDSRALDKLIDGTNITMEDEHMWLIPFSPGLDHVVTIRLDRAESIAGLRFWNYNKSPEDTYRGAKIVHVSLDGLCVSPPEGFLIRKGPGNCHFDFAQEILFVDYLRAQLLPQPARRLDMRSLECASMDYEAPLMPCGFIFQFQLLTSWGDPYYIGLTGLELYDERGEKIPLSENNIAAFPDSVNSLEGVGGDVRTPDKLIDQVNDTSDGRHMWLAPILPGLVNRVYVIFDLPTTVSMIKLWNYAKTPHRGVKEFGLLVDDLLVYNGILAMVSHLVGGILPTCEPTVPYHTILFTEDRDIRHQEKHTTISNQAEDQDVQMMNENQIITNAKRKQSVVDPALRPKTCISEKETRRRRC
UniProt Q9Y2U9: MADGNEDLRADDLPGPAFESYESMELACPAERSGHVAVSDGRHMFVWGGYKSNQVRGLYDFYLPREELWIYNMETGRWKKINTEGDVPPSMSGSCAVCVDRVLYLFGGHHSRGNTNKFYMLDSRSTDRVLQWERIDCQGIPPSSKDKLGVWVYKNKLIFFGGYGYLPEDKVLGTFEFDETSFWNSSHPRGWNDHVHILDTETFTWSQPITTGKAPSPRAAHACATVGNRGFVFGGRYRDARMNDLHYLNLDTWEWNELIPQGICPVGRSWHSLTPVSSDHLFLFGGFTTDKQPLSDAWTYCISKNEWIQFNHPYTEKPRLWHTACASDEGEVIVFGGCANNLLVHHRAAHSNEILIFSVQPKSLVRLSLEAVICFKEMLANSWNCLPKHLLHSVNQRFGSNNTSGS
UniProt Q86Y91: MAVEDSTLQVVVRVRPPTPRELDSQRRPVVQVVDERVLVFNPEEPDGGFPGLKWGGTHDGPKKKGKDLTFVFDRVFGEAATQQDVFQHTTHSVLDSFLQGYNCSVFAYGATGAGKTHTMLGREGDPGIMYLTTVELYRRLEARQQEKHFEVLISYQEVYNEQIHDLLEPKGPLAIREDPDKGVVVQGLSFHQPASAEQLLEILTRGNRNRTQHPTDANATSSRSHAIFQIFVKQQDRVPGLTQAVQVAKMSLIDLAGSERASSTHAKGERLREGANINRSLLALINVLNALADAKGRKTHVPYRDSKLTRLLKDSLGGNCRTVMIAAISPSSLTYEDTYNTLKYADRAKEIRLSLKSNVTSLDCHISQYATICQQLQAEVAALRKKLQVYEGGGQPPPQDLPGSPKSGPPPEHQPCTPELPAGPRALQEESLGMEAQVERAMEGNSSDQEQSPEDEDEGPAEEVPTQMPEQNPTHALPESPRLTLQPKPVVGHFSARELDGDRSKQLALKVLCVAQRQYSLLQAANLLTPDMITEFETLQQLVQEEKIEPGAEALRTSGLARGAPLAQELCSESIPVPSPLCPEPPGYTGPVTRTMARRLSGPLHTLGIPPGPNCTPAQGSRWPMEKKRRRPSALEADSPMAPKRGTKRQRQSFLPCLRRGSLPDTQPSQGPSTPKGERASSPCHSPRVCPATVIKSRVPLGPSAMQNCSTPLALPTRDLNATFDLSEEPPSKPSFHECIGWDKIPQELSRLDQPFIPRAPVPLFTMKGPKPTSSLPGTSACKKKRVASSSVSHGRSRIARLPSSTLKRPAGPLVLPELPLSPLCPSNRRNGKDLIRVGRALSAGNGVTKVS
UniProt Q07866: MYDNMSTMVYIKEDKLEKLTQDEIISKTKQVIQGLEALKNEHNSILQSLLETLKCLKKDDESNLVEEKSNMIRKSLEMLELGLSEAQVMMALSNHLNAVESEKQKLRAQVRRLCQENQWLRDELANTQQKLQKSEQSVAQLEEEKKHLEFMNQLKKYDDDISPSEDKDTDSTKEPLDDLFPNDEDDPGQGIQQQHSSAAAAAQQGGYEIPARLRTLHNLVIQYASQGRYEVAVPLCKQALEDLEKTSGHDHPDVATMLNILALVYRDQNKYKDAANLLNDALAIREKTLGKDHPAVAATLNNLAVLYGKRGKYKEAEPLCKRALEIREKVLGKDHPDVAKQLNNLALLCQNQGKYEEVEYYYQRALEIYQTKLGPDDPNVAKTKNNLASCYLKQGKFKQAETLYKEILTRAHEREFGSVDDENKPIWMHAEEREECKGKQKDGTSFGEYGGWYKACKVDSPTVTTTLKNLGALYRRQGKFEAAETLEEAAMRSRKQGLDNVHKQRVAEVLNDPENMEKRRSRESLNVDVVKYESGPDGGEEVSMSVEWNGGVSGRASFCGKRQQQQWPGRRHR
UniProt Q9Y2Y9: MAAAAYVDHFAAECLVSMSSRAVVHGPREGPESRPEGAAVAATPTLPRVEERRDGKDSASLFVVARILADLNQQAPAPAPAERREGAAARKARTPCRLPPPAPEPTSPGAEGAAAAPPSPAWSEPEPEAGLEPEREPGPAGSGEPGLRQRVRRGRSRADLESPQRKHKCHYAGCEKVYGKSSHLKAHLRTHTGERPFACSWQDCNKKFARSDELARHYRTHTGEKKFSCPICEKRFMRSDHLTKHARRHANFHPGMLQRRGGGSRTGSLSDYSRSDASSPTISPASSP

Legend:
Experiment in all cases: log2 fold change, soluble protein after heating vs DMSO (PISA); higher = thermal stabilisation; K562 lysate, 10 uM; active = over 0.2 and 3.5 SD of the protein, either way, in both replicates (recomputed)
[1] = compound: NC1(c2ccc(-c3nc4ccn5c(=O)[nH]nc5c4cc3-c3ccccc3)cc2)CCC1
Summary of the method: (§1)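 Following dounce homogenisation of K562 pellets in PBS pH 7.4 with 1 mM MgCl2, crude extract at 1 mg/mL protein was incubated for 30 min with 10 μM compound. Aliquots were then heated for 3 min over 48°C-58°C and pooled, NP-40 was added to 0.5% at 4°C, and soluble protein was recovered as the supernatant at 21,000xg for 90 min. Channel-sum-equalised TMTpro 16plex LC-MS/MS quantified this protein. Each value, from duplicates, is a log-two fold change in thermal stability relative to solvent controls.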

dasatinib = compound: Cc1nc(Nc2ncc(C(=O)Nc3c(C)cccc3Cl)s2)cc(N2CCN(CCO)CC2)n1 [dasatinib]
Summary of the method: as §1

[2] = compound: Cn1cc(-c2ccc3c(c2)CCN3C(=O)Cc2cccc(C(F)(F)F)c2)c2c(N)ncnc21
Summary of the method: as §1

quisinostat = compound: Cn1cc(CNCC2CCN(c3ncc(C(=O)NO)cn3)CC2)c2ccccc21 [quisinostat]
Summary of the method: as §1

[3] = compound: NC(=O)Nc1cc(-c2cccc(F)c2)sc1C(=O)N[C@H]1CCCNC1
Summary of the method: as §1

[4] = compound: NC(=O)c1cnc(N[C@@H]2CCCC[C@@H]2N)nc1Nc1cccc(-n2nccn2)c1
Summary of the method: as §1

nilotinib = compound: Cc1cn(-c2cc(NC(=O)c3ccc(C)c(Nc4nccc(-c5cccnc5)n4)c3)cc(C(F)(F)F)c2)cn1 [nilotinib]
Summary of the method: as §1

[5] = compound: Cc1nc(Nc2n[nH]c3c2CN(C(=O)N[C@H](CN(C)C)c2ccccc2)C3(C)C)c2sccc2n1
Summary of the method: as §1

[6] = compound: Cc1ncc(-c2ccnc(Nc3ccc(S(C)(=O)=O)cc3)n2)n1C(C)C
Summary of the method: as §1

tipifarnib = compound: Cn1cncc1[C@@](N)(c1ccc(Cl)cc1)c1ccc2c(c1)c(-c1cccc(Cl)c1)cc(=O)n2C [tipifarnib]
Summary of the method: as §1

With KLHL17 (UniProt Q6TDP4) the log2 fold change [1] was inactive: -0.044.
For KRT13 (UniProt K7EMD9), the log2 fold change [1] was inactive: -0.3.
In the case of KRAS isoform 2 (UniProt P01116), the log2 fold change (dasatinib) is reported as inactive: -0.029, the log2 fold change [2] is reported as inactive: -0.025 and the log2 fold change (quisinostat) is reported as inactive: 0.018. The log2 fold change [3] was inactive: 0.001, the log2 fold change [4] was inactive: -0.046 and the log2 fold change [1] was inactive: 0.036.
KIAA0556 (UniProt O60303) was tested, and the log2 fold change (nilotinib) was inactive: -1.05, the log2 fold change [5] was inactive: 0.164 and the log2 fold change [6] was inactive: 0.015. For the same target, the log2 fold change (tipifarnib) was inactive: 0.298.
In the case of KLHDC2 (UniProt Q9Y2U9), the log2 fold change (quisinostat) is reported as inactive: 0.058, the log2 fold change [3] is reported as inactive: -0.077 and the log2 fold change [1] is reported as inactive: -0.084.
With KMT2D (UniProt O14686) the log2 fold change (dasatinib) was inactive: -0.201 and the log2 fold change [2] was inactive: -0.045.
In the case of KIF18B (UniProt Q86Y91), the log2 fold change (dasatinib) is reported as inactive: 0.073, the log2 fold change [2] is reported as inactive: 0.076 and the log2 fold change (quisinostat) is reported as inactive: -0.025. For the same target, the log2 fold change [3] was inactive: 0.17 and the log2 fold change [4] was inactive: 0.025.
With KLC1 isoform 10 (UniProt Q07866) the log2 fold change [1] was inactive: -0.159.
With KLF13 (UniProt Q9Y2Y9) the log2 fold change (quisinostat) was inactive: -0.098 and the log2 fold change [3] was inactive: -0.002.
